From patent US20240239907A1
Results are given in words; binding and its absence hold for the method and conditions named. Some entries that bind do so weakly or less than the wild type.

Sequences of proteins named here, by UniProt entry; tags and fusion partners are left off. A change or cut given only in a name is not applied to a line headed by its entry.
UniProt O00574: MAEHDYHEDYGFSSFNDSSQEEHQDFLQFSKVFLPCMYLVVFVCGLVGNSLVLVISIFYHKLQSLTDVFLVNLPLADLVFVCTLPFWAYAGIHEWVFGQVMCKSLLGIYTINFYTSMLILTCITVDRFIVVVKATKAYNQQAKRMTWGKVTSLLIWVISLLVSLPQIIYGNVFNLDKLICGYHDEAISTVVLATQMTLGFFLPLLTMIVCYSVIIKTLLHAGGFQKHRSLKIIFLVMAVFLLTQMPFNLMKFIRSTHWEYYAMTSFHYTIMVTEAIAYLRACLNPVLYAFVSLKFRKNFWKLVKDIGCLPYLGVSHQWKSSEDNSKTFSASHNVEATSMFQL

Target: human CXCR6 (human) (UniProt O00574)
Assay: screening on cells overexpressing CXCR6, one single concentration, yes/no

binding: binds
B1: CNGs-2F11 (antibody, V domains shown)
VH: EVQLQQSGPVLVKPGASVRMSCKASGYTFTEYYINWVKQGHGKSLEWIGIFNPYNGNTKYNQNFKGKATLTVDMSSSTAYMELSSLTSEDSAVYYCSRPYSNFGQGTLVTVSA
VL: DVLLTQIPLSLPVSLGDQASISCRSSQSIVHSNGNTYLEWYLQKPGQSPKLLIYKVSNRFSGVPDRFSGSGSGTDFTLKISRVGAEDLGVYYCFQGSHVPFTFGSGTKLEIK
